Usually AC50 stands for the midpoint of the concentration-response curve, whichever way the signal moves.

This is one part of the list. These are further read-outs of the screen, such as a control signal, another cell line or another target. No call is given for them. Compounds called inactive in the main read-out are mostly missing here. The note in brackets gives the kind of curve behind each potency; many fits are weak.

The values below come from PubChem BioAssay AID445 (National Center for Advancing Translational Sciences (NCATS), 2006).

This experiment is described as follows: IkB Signaling. Conditions: ABC-DLBCL IkBa-CBG/CBR dual luciferase ratio (green luciferase fused to IkBa over red control in OCI-Ly3 lymphoma cells), 4 h; measured here: control luc red channel unless noted. Summed up: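 Luminescence ratio of IκBα-fused green versus native red beetle luciferase in OCI-Ly3 cells, 4 h post-doxycycline with compound; red signal alone, scaled from basal (0%) to zero light (-100%), flagged nonspecific or cytotoxic effects.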
For the compound `Fc1ccc2nc(N3CCCCC3)sc2c1`, the AC50 was 1 µM [rising, partial curve].

As for `COc1cccc(CNC(=O)C2CCCN(S(=O)(=O)N(C)c3ccc(F)cc3)C2)c1OC` (stereo not given), the AC50 is 20 µM [falling, partial curve]. The value for `Cc1cccc(NC(=O)CSC2=Nc3ccccc3C3=NC(CC(=O)NCc4cccs4)C(=O)N23)c1` (stereo not given) was 15.8 µM [falling, partial curve, poor fit]; that for `COc1ccc(CNC(=O)CCCn2nc(C)n3c(cc4sccc43)c2=O)cc1` was 39.8 µM [falling, single point]; that for `O=C(COc1ccccc1)Nc1nnc(S(=O)(=O)Nc2ccccc2)s1` was 1 µM [rising, full curve]. With `CCOc1ccccc1C1C(C(=O)Nc2ccccc2)=C(C)Nc2nc(SCC(=O)c3ccc(C)cc3)nn21` (stereo not given), the concentration at half-maximal activity (AC50) was 20 µM [falling, partial curve, poor fit].

Regarding `CCCCNC(=O)c1nnn(-c2ccccc2)c1N`, the AC50 was 15.8 µM [falling, partial curve]. To `CN(C(=O)CSc1nc(-c2ccccc2)no1)c1ccc(F)cc1` belongs 1.26 µM [falling, full curve]. As to `COc1ccc(C(=O)c2sc3nc4c(c(C(F)(F)F)c3c2N)CN(C(C)=O)CC4)cc1OC`, the AC50 is 1.26 µM [rising, partial curve]. Regarding `Cc1onc(-c2ccccc2Cl)c1C(=O)OCn1nnc2ccccc2c1=O`, the AC50 was 1 µM [falling, partial curve].

`CCOc1ccccc1NC(=O)Nc1nnc(N2CCCC(C)C2)s1` (stereo not given): the AC50 was 10 µM [falling, partial curve]. Regarding `Cc1cccc2cc(CN(Cc3cccs3)Cc3nnnn3Cc3ccccc3)c(=O)[nH]c12`, the AC50 is 7.94 µM [falling, partial curve]. To `Cc1ccc(-c2nnc(Nc3cccc(Cl)c3)c3ccccc23)cc1S(=O)(=O)N1CCN(C)CC1` belongs 10 µM [falling, partial curve]. In the case of `CCN(Cc1ccccc1)c1ncnc2c1cnn2-c1ccc(F)cc1`, the AC50 is 39.8 µM [falling, single point]. With `COc1ccc(NC(=O)C2CCCN(c3ncnc4onc(C)c34)C2)cc1OC` (stereo not given), the AC50 is 0.2 µM [rising, full curve].

For the compound `Cc1ccc(Cn2c(SCc3ccc(C(=O)N4CCCCC4)cc3)nc3ccncc32)cc1`, the AC50 was 25.1 µM [falling, partial curve].

With `CCC(=O)OC1=C(C(C)=O)N(Cc2ccccc2)S(=O)(=O)c2ccccc21`, the AC50 was 25.1 µM [falling, partial curve]. Regarding `COC(=O)C1=C(C)N(c2ccc(OC)c(OC)c2)C(=O)C1`, the AC50 is 39.8 µM [falling, single point]. To `COc1ccc(-c2cc(C(=O)N3CCCCC3C)no2)cc1OC` (stereo not given) belongs 3.98 µM [rising, single point]; to `COc1ccccc1CNC(=O)C(=O)NCC(c1ccco1)S(=O)(=O)c1ccc(C)cc1` (stereo not given), 20 µM [falling, single point].

Turning to `CCCCCn1c(CCCNC(=O)c2ccc(Cl)cc2)nc2ccccc21`, the AC50 is 25.1 µM [falling, partial curve]. As to `COc1ccc(-c2nc(C(=O)Nc3cccc(C(C)=O)c3)nn2-c2ccccc2Cl)cc1`, the AC50 was 10 µM [falling, partial curve]. The value for `CCOc1cc(-c2nc(-c3ccc(-c4ccccc4)nc3OCC)no2)cc(OCC)c1OCC` was 39.8 µM [falling, single point]; that for `Cc1nnc2sc(-c3cccc(NC(=O)c4ccc(-c5cccc(Cl)c5)o4)c3)nn12` was 7.94 µM [falling, full curve, poor fit]; that for `O=C(NCc1ccccc1Cl)c1ccccc1NC(=O)c1nsc2ccccc12` was 25.1 µM [falling, partial curve]. To `COCCCNC(=O)c1cc2c(-c3cccc(OC)c3)nn(C)c2s1` belongs 5.01 µM [falling, partial curve]; to `O=C(CSc1nccn1Cc1ccc(Cl)cc1)Nc1nc2ccccc2s1`, 31.6 µM [falling, partial curve, poor fit]; to `COc1ccccc1-c1cn(S(=O)(=O)c2ccc(F)cc2)nc1N`, 3.98 µM [falling, full curve]. `CCc1ccc(NC(=O)c2cc(S(=O)(=O)N3CCCC(C)C3)cn2C)cc1` (stereo not given): the AC50 was 12.6 µM [falling, partial curve]. For `CCOc1ccc(CNC(=O)C2CCN(C(=O)c3ccc(-n4ccc5ccccc54)s3)CC2)cc1`, the AC50 was 25.1 µM [falling, single point]. For `Cc1cccc(NC(=O)Cn2c(=O)n(CCCCCC(=O)NCc3ccccc3)c(=O)c3sccc32)c1`, the AC50 is 10 µM [falling, partial curve].

For the compound `Cc1ccc(C)c(N2CCN(S(=O)(=O)c3c(C(=O)N4CCC(C)CC4)c(C)n(C)c3C)CC2)c1`, the AC50 was 39.8 µM [falling, single point]. To `O=C(COc1ccccc1)NCC(c1ccc(Cl)cc1)N1CCCCC1` (stereo not given) belongs 31.6 µM [falling, partial curve]; to `Cc1cccc(CC(=O)N2CC(=O)Nc3ccc(Br)cc3C2c2ccc(F)cc2)c1` (stereo not given), 10 µM [falling, partial curve]; to `CC(C)N(C(=O)CSc1cn(CC(=O)N2CCCCCC2)c2ccccc12)C(C)C`, 25.1 µM [falling, single point]. The value for `COc1cccc(/C=C/c2nc(C#N)c(N3CCC(C(N)=O)CC3)o2)c1` was 6.31 µM [falling, partial curve]; that for `COc1ccc(Br)cc1S(=O)(=O)Nc1cc(-c2cn3ccccc3n2)ccc1C` was 6.31 µM [rising, single point]. To `Cc1ccc(C)c(-c2nnc(OCC(=O)Nc3cc(C)on3)c3ccccc23)c1` belongs 39.8 µM [falling, single point].

For `COc1ccccc1Nc1sc(C(=O)c2ccc(F)cc2)c(N)c1S(=O)(=O)c1ccc(C)cc1`, the AC50 is 15.8 µM [falling, partial curve, poor fit]. To `COc1ccc(CNC(=O)CCc2c(C)nc3c(c(C)nn3-c3ccccc3)c2C)cc1` belongs 15.8 µM [falling, partial curve].
